Laboratory results: the supplement of paper PMC10849652
The list shows a part of the results.

Chains of the proteins cited; added tags and fusions are not shown. Lines headed by an entry give the natural chain unless they say otherwise; changes in a name come on top.
UniProt O43318: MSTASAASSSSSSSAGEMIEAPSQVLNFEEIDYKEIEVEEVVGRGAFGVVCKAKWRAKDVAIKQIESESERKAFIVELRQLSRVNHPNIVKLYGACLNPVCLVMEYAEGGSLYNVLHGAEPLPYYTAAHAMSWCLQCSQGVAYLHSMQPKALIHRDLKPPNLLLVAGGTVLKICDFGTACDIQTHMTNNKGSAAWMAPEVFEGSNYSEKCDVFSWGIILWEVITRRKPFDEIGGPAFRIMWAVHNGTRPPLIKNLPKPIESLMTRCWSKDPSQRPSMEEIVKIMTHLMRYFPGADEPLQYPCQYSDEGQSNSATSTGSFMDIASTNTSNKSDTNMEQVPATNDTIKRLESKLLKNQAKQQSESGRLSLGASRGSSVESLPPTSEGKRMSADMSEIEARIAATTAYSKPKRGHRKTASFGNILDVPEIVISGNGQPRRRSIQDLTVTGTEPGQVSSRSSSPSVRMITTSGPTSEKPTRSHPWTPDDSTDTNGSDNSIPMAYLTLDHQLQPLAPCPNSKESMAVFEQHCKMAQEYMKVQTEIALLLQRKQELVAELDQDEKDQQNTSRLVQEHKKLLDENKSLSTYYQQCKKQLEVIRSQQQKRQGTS
UniProt P48449: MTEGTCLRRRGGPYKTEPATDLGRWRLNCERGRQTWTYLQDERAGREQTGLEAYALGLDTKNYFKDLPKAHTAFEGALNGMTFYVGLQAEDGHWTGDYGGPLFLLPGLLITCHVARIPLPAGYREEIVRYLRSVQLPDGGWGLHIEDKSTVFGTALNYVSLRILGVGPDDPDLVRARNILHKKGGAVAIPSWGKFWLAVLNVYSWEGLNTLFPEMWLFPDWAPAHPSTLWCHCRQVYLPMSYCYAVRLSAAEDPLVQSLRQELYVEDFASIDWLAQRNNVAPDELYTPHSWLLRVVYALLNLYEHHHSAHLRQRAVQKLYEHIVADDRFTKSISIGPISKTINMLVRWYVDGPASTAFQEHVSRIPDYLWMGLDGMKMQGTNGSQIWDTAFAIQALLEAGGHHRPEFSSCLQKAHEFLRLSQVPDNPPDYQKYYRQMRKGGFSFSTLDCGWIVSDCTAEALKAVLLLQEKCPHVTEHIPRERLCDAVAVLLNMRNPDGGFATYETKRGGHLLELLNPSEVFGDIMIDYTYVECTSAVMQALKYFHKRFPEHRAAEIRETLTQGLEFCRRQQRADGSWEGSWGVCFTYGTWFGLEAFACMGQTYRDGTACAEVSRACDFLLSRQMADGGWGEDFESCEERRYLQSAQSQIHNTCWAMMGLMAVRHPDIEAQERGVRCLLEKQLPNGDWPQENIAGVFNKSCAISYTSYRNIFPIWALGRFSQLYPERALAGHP
UniProt O60732: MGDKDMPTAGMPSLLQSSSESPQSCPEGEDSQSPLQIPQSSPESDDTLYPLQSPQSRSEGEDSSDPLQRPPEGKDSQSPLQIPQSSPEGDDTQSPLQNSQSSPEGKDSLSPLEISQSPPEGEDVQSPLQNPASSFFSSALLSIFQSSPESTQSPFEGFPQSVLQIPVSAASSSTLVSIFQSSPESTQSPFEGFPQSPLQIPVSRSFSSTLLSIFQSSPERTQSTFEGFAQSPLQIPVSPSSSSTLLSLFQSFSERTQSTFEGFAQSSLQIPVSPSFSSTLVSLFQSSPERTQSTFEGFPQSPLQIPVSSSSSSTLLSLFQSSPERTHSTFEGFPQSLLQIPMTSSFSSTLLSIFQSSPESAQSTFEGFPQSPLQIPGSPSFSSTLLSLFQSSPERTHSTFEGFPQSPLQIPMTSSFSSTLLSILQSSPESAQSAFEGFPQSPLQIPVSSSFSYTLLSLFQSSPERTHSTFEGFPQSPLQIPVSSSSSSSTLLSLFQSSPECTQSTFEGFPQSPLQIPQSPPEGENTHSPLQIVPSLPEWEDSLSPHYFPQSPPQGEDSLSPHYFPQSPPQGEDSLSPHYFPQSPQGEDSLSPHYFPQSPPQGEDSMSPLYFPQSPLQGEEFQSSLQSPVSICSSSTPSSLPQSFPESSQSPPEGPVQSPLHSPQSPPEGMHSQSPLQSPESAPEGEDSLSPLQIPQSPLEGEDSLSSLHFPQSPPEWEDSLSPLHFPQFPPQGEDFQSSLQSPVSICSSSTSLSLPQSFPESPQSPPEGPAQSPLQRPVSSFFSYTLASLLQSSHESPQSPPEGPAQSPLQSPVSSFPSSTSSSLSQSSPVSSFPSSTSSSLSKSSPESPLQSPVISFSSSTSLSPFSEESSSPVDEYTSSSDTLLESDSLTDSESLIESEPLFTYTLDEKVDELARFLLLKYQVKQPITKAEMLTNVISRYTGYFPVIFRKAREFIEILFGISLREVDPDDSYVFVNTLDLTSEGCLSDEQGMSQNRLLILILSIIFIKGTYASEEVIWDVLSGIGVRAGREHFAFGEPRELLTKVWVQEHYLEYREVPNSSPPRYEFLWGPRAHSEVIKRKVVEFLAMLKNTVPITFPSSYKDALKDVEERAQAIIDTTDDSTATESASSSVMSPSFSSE
UniProt Q9BQ69: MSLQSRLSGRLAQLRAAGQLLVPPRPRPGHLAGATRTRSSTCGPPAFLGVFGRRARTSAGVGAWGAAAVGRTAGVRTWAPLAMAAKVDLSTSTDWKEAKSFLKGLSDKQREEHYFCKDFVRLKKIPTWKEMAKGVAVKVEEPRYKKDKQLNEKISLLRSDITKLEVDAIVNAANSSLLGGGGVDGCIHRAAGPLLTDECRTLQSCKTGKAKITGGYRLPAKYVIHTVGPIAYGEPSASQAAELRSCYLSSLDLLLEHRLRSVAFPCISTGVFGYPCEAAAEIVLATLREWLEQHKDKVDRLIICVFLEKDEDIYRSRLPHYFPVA
UniProt O00462: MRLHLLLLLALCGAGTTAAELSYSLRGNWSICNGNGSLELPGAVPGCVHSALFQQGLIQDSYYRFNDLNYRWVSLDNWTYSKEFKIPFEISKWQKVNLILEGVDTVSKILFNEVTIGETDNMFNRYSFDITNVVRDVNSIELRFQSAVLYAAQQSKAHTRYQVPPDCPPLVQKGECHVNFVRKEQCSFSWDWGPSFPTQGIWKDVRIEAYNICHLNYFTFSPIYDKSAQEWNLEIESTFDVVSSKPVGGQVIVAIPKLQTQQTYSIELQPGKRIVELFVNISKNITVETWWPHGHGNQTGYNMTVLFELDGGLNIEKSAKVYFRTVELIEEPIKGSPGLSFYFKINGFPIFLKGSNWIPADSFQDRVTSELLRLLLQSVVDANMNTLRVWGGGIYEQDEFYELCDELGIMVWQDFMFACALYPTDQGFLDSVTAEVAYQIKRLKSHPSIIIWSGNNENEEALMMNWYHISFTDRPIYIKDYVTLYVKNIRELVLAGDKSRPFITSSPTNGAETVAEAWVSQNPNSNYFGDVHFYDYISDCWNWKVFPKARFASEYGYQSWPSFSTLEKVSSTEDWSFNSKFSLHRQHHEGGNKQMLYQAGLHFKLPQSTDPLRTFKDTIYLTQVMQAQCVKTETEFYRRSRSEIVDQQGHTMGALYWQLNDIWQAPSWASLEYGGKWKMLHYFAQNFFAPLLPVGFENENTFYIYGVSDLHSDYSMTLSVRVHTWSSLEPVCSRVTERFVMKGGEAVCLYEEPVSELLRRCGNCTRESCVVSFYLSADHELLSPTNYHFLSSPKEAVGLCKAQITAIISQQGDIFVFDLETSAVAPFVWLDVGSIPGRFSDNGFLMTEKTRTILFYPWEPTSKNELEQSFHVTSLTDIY
UniProt Q8N2S1: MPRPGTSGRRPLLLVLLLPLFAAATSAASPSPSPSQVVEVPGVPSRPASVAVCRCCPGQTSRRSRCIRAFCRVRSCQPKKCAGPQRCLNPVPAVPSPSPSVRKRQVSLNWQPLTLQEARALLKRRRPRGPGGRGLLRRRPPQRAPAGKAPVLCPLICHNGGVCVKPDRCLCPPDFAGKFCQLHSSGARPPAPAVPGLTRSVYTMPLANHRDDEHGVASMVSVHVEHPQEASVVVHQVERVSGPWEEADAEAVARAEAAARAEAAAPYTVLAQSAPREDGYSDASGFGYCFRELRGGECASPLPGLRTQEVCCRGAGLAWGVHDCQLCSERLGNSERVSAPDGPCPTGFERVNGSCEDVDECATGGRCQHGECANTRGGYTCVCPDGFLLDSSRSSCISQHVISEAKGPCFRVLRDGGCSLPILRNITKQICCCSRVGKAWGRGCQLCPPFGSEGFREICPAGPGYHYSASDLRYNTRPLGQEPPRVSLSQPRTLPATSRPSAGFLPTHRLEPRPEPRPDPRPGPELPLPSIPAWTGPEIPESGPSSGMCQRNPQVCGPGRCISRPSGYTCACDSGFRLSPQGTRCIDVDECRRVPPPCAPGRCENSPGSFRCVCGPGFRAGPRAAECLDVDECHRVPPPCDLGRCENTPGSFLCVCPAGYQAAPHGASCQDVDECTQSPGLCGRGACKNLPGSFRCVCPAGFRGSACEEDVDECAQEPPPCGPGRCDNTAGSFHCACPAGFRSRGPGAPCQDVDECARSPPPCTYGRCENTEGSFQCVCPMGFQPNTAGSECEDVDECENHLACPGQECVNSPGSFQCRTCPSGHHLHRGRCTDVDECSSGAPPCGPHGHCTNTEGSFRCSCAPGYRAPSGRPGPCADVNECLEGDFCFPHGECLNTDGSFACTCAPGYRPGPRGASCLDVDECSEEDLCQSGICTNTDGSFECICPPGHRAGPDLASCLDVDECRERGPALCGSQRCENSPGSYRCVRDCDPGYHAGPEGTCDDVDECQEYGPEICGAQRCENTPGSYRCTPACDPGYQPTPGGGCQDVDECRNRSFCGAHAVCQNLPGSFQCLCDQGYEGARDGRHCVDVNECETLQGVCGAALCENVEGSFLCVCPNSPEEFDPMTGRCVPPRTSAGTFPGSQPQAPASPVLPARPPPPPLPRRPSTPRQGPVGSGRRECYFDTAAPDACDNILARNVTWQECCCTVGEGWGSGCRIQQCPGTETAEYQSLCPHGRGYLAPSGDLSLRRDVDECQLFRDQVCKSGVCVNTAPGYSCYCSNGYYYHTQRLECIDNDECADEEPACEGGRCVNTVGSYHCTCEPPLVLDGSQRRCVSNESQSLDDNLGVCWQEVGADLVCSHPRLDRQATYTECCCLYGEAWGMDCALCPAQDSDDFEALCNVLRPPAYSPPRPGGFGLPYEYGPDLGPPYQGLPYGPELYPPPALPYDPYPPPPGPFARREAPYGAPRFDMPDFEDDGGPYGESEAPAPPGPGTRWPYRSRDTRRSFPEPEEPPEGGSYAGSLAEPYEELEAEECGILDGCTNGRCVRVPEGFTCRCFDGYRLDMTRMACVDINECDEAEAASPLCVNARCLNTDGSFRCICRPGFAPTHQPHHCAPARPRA
UniProt Q02779: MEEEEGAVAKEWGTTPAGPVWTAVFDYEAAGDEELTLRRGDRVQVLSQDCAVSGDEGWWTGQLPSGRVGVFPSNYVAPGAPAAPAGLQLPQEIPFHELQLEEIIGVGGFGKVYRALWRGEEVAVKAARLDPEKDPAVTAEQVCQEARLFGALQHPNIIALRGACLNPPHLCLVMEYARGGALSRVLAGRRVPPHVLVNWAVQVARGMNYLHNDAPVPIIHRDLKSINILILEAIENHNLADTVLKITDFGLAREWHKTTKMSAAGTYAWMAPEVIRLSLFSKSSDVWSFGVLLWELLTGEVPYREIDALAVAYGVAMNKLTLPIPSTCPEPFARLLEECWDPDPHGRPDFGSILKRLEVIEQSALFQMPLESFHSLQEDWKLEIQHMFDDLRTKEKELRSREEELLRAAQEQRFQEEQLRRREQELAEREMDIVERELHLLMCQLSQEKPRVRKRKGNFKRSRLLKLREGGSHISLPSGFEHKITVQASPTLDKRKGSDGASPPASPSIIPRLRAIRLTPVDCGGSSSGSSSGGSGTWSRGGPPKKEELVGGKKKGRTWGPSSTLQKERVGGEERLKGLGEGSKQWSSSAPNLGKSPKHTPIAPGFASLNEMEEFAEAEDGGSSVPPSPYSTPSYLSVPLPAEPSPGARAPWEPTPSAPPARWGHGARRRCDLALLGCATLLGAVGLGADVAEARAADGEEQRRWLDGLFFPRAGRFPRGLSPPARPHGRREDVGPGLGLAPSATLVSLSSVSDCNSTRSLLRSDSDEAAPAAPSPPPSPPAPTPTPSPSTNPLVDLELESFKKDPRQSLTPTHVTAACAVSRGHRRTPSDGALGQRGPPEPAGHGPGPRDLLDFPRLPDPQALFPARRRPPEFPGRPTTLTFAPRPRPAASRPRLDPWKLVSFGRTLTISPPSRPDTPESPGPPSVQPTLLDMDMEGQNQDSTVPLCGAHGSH

Experiments:
Assay in all cases: log2 fold change, soluble protein after heating vs DMSO (PISA); higher = thermal stabilisation; K562 cells, 10 uM, 30 min; active = over 0.2 and 3.5 SD of the protein, either way, in both replicates (recomputed)
[1] = compound: NC(=O)Nc1cc(-c2cccc(F)c2)sc1C(=O)N[C@H]1CCCNC1
Procedure, shortened: (§1)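 K562 cells (2×10^6 cells/mL) were treated with 10 μM compound for 30 min, and aliquots were heated for 3 min over 48°C-58°C. Pooled aliquots were extracted in PBS with 0.5% NP-40 at 4°C, and the supernatant after 21,000xg for 90 min was measured by TMTpro 16plex LC-MS/MS with channel sums equalised. Reported thermal stability, relative to control samples and from duplicates, is a log2 fold change.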

[2] = compound: NC(=O)c1cnc(N[C@@H]2CCCC[C@@H]2N)nc1Nc1cccc(-n2nccn2)c1
Procedure, shortened: as §1

[3] = compound: NC1(c2ccc(-c3nc4ccn5c(=O)[nH]nc5c4cc3-c3ccccc3)cc2)CCC1
Procedure, shortened: as §1

[4] = compound: NCC(=O)Nc1ccc(-n2nc(C(F)(F)F)cc2-c2ccc3c(ccc4ccccc43)c2)cc1
Procedure, shortened: as §1

[5] = compound: Nc1ccccc1NC(=O)c1ccc(CNC(=O)OCc2cccnc2)cc1 [entinostat]
Procedure, shortened: as §1

[6] = compound: O=C(CCCCCCC(=O)Nc1ccccc1)NO [vorinostat]
Procedure, shortened: as §1

[7] = compound: O=C(CCCCCCNC(=O)c1cnc(N(c2ccccc2)c2ccccc2Cl)nc1)NO [citarinostat]
Procedure, shortened: as §1

[8] = compound: O=C(O)c1ccc2c(c1)nc(Nc1cccc(Cl)c1)c1ccncc12 [silmitasertib]
Procedure, shortened: as §1

[9] = compound: O=C1NC(=O)C(c2cnc3ccccn23)=C1c1cn2c3c(cc(F)cc13)CN(C(=O)N1CCCCC1)CC2
Procedure, shortened: as §1

[10] = compound: c1cc(OCCN2CCCCC2)cc(-c2n[nH]c3ccc(-c4nnc[nH]4)cc23)c1
Procedure, shortened: as §1

Measured: log2 fold change

LYPLA1 (UniProt O75608)
inactive: [1] -0.058 | [2] -0.036 | [3] -0.041 | [4] -0.034 | [5] 0.023 | [6] -0.117 | [7] 0.015 | [8] -0.041 | [9] -0.019 | [10] -0.006

MAP3K7 (UniProt O43318)
inactive: [1] -0.162 | [2] 0.033 | [3] -0.141 | [4] -0.086 | [5] 0.035 | [6] 0.033 | [7] 0.063 | [8] 0.004 | [9] 0.091 | [10] -0.068

MAN2A2 (UniProt P49641)
inactive: [1] -0.023 | [2] -0.002 | [3] -0.016 | [4] 0.115 | [5] -0.021 | [6] 0.025 | [7] 0.016 | [8] -0.035 | [9] -0.023 | [10] -0.075

LSS (UniProt P48449)
inactive: [1] 0.017 | [2] 0.108 | [3] 0.142 | [4] -0.049 | [5] 0.003 | [6] 0.052 | [7] -0.01 | [8] 0.001 | [9] -0.001 | [10] -0.033

MAPRE2 (UniProt Q15555)
inactive: [1] 0.522 | [2] 0.138 | [3] 0.069 | [4] 0.248 | [5] 0.328 | [6] 0.045 | [7] 0.02 | [8] 0.116 | [9] 0.336 | [10] -0.104

MAP2K1 (UniProt Q02750)
inactive: [1] -0.028 | [2] -0.062 | [3] -0.011 | [4] -0.027 | [5] -0.004 | [6] 0.035 | [7] 0.022 | [8] -0.064 | [9] -0.061 | [10] -0.035

MAGEC1 (UniProt O60732)
inactive: [1] 0.091 | [2] -0.031 | [3] -0.025 | [4] 0.027 | [5] 0.117 | [6] 0.002 | [7] 0.095 | [8] 0.127 | [9] 0.206 | [10] -0.074

LSM14A isoform 2 (UniProt Q8ND56)
inactive: [1] -0.11 | [2] -0.039 | [3] 0 | [4] -0.089 | [5] -0.06 | [6] -0.011 | [7] -0.095 | [8] -0.023 | [9] -0.044 | [10] -0.03

MACROD1 (UniProt Q9BQ69)
inactive: [1] 0.01 | [2] 0.066 | [3] -0.087 | [4] -0.147 | [5] 0.056 | [6] 0.083 | [7] 0.022 | [8] -0.106 | [9] -0.157 | [10] -0.054

LTA4H (UniProt P09960)
inactive: [1] 0.014 | [2] -0.117 | [3] -0.081 | [4] -0.022 | [5] -0.011 | [6] 0.114 | [7] 0.064 | [8] 0.022 | [9] -0.012 | [10] -0.037

LSM7 (UniProt Q9UK45)
inactive: [1] -0.007 | [2] -0.008 | [3] -0.002 | [4] -0.012 | [5] -0.016 | [6] -0.067 | [7] 0.051 | [8] 0.035 | [9] -0.014 | [10] -0.011

MAIP1 (UniProt Q8WWC4)
inactive: [1] -0.061 | [2] -0.06 | [3] -0.129 | [4] -0.009 | [5] -0.015 | [6] 0.017 | [7] 0.076 | [8] -0.012 | [9] -0.085 | [10] -0.012

MANBA (UniProt O00462)
inactive: [1] 0.001 | [2] 0.017 | [3] -0.144 | [4] -0.008 | [5] -0.02 | [6] -0.022 | [7] 0.056 | [8] 0.014 | [9] -0.003 | [10] -0.122

MARCHF5 (UniProt Q9NX47)
inactive: [1] -0.014 | [2] 0.02 | [3] 0.027 | [4] 0.059 | [5] 0.001 | [6] -0.067 | [7] -0.007 | [8] 0.006 | [9] -0.041 | [10] -0.056

LRRC8C (UniProt Q8TDW0)
inactive: [1] 0.062 | [2] -0.063 | [3] 0.272 | [5] -0.136 | [6] 0.249 | [7] -0.331 | [8] 0.084 | [9] 0.416 | [10] -0.106

LTBR (UniProt P36941)
inactive: [1] 0.018 | [2] -0.016 | [4] -0.038 | [5] -0.006 | [6] -0.235 | [7] -0.313 | [9] -0.183 | [10] -0.059

MAPRE1 (UniProt Q15691)
inactive: [1] 0.003 | [2] -0.062 | [3] -0.112 | [4] -0.046 | [5] 0.014 | [6] -0.003 | [7] 0.044 | [8] -0.038 | [9] -0.069 | [10] 0.014

MAP4K4 isoform 3 (UniProt O95819)
inactive: [1] -0.199 | [2] -0.154 | [3] -0.204 | [4] -0.013 | [5] 0.07 | [6] 0.075 | [7] 0.044 | [8] -0.024 | [10] -0.179

MAPK14 (UniProt Q16539)
inactive: [1] -0.019 | [2] -0.047 | [3] -0.136 | [4] -0.033 | [5] 0.022 | [6] 0.027 | [7] 0.051 | [8] 0.37 | [10] 0.058

LTBP4 (UniProt Q8N2S1)
inactive: [1] -0.011 | [2] -0.075 | [3] -0.314 | [5] -0.064 | [6] -0.015 | [7] -0.058 | [8] -0.005 | [9] -0.109 | [10] -0.028

LUZP1 (UniProt Q86V48)
inactive: [1] 0.055 | [2] 0.089 | [3] 0.087 | [4] 0.058 | [5] -0.081 | [6] -0.119 | [8] 0.114 | [9] 0.084

MAN2B2 (UniProt Q9Y2E5)
inactive: [1] 0.063 | [2] -0.099 | [3] -0.262 | [4] 0.089 | [5] -0.018 | [7] 0.089 | [8] -0.029 | [9] -0.058 | [10] -0.005

MARK2 (UniProt E9PC69)
inactive: [1] -0.513 | [2] -0.401 | [4] -0.213 | [5] 0.101 | [7] 0.024 | [9] 0.082 | [10] -0.28

Random excerpt: 2 entries already listed, in no set order.
LUZP1 (UniProt Q86V48)
inactive: [1] 0.055 | [2] 0.089 | [3] 0.087 | [4] 0.058 | [5] -0.081 | [6] -0.119 | [8] 0.114 | [9] 0.084

LTBP4 (UniProt Q8N2S1)
inactive: [1] -0.011 | [2] -0.075 | [3] -0.314 | [5] -0.064 | [6] -0.015 | [7] -0.058 | [8] -0.005 | [9] -0.109 | [10] -0.028

More results:

LRWD1 (UniProt Q9UFC0)
inactive: [1] 0.032 | [2] 0.094 | [3] -0.144 | [4] 0.163 | [5] 0.255 | [7] 0.278 | [8] 0.043 | [9] 0.024 | [10] -0.15

MAP4K5 (UniProt Q9Y4K4)
inactive: [1] 0.217 | [2] 0 | [3] -0.002 | [4] -0.097 | [5] -0.012 | [6] 0.074 | [7] 0.02 | [8] -0.09 | [9] 0.073 | [10] 0.026

MAP3K10 (UniProt Q02779)
inactive: [1] 0.037 | [2] -0.048 | [4] 0.014 | [5] -0.02 | [6] -0.096

LYN isoform 2 (UniProt P07948)
inactive: [1] 0.162 | [2] 0.014 | [4] -0.073 | [5] -0.155 | [9] 0.082

MAP4 isoform 5 (UniProt P27816)
inactive: [1] 0.135 | [2] 0.087 | [3] 0.109 | [5] 0.075 | [7] -0.121 | [8] 0.012 | [10] 0.074
active: [9] 0.423

MAFF (UniProt Q9ULX9)
inactive: [1] -0.042 | [2] -0.06 | [3] 0.112 | [4] 0.096 | [5] -0.091 | [6] -0.273 | [7] 0 | [8] -0.118 | [10] 0.153

MAK16 (UniProt Q9BXY0)
inactive: [1] 0.112 | [2] -0.06 | [3] 0.029 | [4] 0.125 | [5] -0.004 | [6] -0.068 | [7] 0.038 | [8] 0.107 | [9] 0.204 | [10] -0.039

LTN1 isoform 3 (UniProt O94822)
inactive: [1] 0.024 | [2] -0.079 | [3] -0.125 | [4] -0.09 | [5] 0.056 | [6] 0.148 | [7] 0.048 | [8] 0.035 | [9] 0.037 | [10] -0.045

LUC7L3 (UniProt O95232)
inactive: [1] -0.203 | [2] -0.017 | [3] 0.058 | [4] -0.076 | [5] -0.051 | [6] -0.008 | [7] 0.083 | [8] -0.156 | [9] 0.086 | [10] -0.086
